# Measured values as given in article PMC4585786.
# Protein sequences, listed by entry. Tags and fused reporters are not part of them. Residues count along the entry.
# UniProt Q04206: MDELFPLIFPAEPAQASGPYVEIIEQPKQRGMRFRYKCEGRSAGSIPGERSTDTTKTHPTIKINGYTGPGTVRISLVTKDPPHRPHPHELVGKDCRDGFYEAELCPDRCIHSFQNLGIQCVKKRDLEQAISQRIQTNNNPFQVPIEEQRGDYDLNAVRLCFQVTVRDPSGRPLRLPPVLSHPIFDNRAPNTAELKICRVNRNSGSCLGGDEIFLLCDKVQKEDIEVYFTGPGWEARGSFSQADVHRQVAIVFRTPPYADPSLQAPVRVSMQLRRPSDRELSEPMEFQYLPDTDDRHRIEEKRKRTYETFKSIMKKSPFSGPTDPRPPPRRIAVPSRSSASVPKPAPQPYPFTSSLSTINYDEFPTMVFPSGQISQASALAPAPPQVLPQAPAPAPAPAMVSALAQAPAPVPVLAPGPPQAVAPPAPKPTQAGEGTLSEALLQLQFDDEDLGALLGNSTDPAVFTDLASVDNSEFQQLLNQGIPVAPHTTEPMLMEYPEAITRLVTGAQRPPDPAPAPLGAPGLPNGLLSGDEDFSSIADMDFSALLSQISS
# UniProt P19838, residues 1-433: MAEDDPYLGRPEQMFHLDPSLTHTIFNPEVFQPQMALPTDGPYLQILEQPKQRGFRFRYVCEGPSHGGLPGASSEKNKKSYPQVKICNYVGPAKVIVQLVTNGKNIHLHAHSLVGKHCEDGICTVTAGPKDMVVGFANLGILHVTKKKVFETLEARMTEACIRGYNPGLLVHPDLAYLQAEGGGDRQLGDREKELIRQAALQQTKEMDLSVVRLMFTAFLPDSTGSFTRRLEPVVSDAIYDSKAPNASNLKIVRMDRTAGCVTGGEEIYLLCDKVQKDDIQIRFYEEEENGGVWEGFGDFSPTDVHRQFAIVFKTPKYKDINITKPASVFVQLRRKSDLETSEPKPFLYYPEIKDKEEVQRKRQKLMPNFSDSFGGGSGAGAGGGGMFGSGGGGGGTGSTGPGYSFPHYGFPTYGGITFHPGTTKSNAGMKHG
# These are yes or no findings as the source states them, for the method shown. In cells and extracts the contact can be indirect. Some binding calls cover weakened binding; strength is not graded here.
# Molecular target: p65-FLAG (full-length p65) (UniProt Q04206)
# Experiment: co-IP
substance,measurement,value
p50-Myc (from UniProt P19838),binding,binds
